Laboratory results published in PubChem BioAssay AID488835 (Broad Institute, 2010).
Out of some 1,400 compounds screened, about 140 (10%) were called active.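 How the source made its calls: active means Half-maximal inhibitory dose from the fit at or below ten times the top valid tested dose; inconclusive means Invalid fit, or flat curve showing 30 to 70% inhibition; inactive means the rest.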 The entries are a selection whose mix differs from that of the whole data set. Entries with a potency or affinity are not part of this list.

Sequences of proteins named here, by UniProt entry; tags and fusion partners are left off. Residues count along the entry.
UniProt Q9H3R0, 1-420 limits assumed: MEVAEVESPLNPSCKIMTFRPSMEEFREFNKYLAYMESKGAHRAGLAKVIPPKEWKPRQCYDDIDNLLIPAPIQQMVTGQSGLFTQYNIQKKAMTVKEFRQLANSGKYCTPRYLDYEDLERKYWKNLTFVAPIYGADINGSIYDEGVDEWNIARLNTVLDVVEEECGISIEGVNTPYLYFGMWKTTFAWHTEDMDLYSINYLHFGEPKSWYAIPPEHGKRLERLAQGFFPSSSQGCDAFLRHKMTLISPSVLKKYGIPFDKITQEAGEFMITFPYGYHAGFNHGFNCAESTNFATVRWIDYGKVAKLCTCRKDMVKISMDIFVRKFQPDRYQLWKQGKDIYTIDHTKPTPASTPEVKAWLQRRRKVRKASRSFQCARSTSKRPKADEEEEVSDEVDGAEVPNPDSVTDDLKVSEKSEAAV

These molecules were tested against Lysine-specific demethylase 4C (Homo sapiens) (UniProt Q9H3R0) (assay: inhibition of JMJD2C H3K9me3 demethylation – biochemical, DELFIA europium, cherry-picked samples, dose response (AID 488835;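 further: signal is the H3K9me2 demethylation product detected by a dimethyl-specific antibody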)). Details: GST-JMJD2C(1-420); at 6 µM (top of the series) unless noted.

Activity change, negative = inhibition, inactive:
COc1ccc(OC)c(Nc2nnc(C)c(=O)[nH]2)c1 2.25%
CN(C(=O)c1ccc(Cl)c([N+](=O)[O-])c1)C1(C)CCS(=O)(=O)C1 (centres undefined) -4.39%
Cc1cc(N2CCN(c3ccccc3)CC2)nc(-c2ccccc2)n1 -3.92%
NC(=S)Nc1ccc(Cl)cc1Cl -0.693%
Cn1nnc(NC(=O)CSc2ccc(Cl)cc2)n1 -1.87%
Cc1ccc(NC(=O)C2C3CCCC2C3c2ccccc2)cc1C (centres undefined) -2.47%
CCCc1cc(=O)[nH]c(SCC(=O)Nc2cc(S(=O)(=O)N(CC)c3ccccc3)ccc2Cl)n1 1.6%
COc1ccc(-c2ccc3oc(-c4ccsc4)cc(=O)c3c2)cn1 0.942%
Oc1ccc(C2Nc3cccc4cccc(c34)N2)cc1 -4.18%
COc1ccc(-n2cc(C(=O)O)c3ccccc3c2=O)cc1 11.8%
COc1cccc2c1nc(C)c1cc(C)oc12 -1.78%
Cc1occc1-c1nnc(SCC(=O)c2c[nH]c3ccccc23)n1C -1.09%
CCCN(CCC)CCNC(=O)CS(=O)Cc1nc(-c2ccc(C)cc2)oc1C (centres undefined) -1.44%
CCN(C[C@H]1N[C@@](Cc2ccccc2)(C(=O)OC)[C@H]2C(=O)N(Cc3ccccc3)C(=O)[C@@H]12)S(=O)(=O)c1ccccc1 1.11%
COc1ccc(NC(=O)N(C)C[C@H]2Oc3c(NS(=O)(=O)c4cccs4)cccc3C(=O)N([C@@H](C)CO)C[C@@H]2C)cc1 6.59%
COC(C(=O)Nc1ccc(NC(=O)C(OC)c2ccccc2)cc1)c1ccccc1 (centres undefined) -6.79%
Cc1cc(NC(=O)CCC(=O)N(c2ccccc2)C2(C(=O)NC3CCCCC3)CCCC2)no1 -1.18%
CC(=O)c1c(C)[nH]c(C(=O)NCCC2=CCCCC2)c1C 5.97%
O=C(NCc1cccs1)c1cccnc1C(=O)O -1.61%
Cc1noc(C)c1CCC(=O)N1CCCC(CCC(=O)NCc2ccccc2F)C1 (centres undefined) -3.85%
Cc1onc(-c2c(F)cccc2Cl)c1C(=O)N1CCN(S(C)(=O)=O)CC1 12.7%
CC(C)(C)OC(=O)C[C@@H]1C/C=C\C[C@H](CC(=O)N[C@H](CO)Cc2ccccc2)C(=O)N[C@@H](Cc2ccccc2)COC1=O 5.54%
CC1=NN(C(=O)Cc2ccccc2)C(O)(c2cccnc2)C1 (centres undefined) 1.24%
O=C(/C=C\Nc1ccc(Cl)cn1)c1ccc(Br)cc1 -7.96%
CCOC(=O)Cn1nc(C)c2c1CCCC2=O 1.44%
O=C(COc1ccc(Cl)cc1)NCCCn1ccnc1 3.44%
COc1c(Cl)cc(Cl)cc1/C=C/C(=O)c1ccc(NC(=O)c2cccs2)cc1 4.13%
O=C(COC(=O)c1ccco1)NNC(=O)c1ccc(Cl)cc1 1.1%
Fc1cccc(/C=N/Nc2nc3ccccc3[nH]2)c1 2.18%
Cc1cccc(C)c1N1C(=O)c2cccc([N+](=O)[O-])c2C1=O 1.27%
CCC(NS(=O)(=O)c1cccs1)c1ccc(C)cc1 (centres undefined) 3.29%
c1coc(CSCc2cn3cccnc3n2)c1 7.04%
CCCNC1=C(N(C(C)=O)c2cccc(F)c2)C(=O)c2ccccc2C1=O 3.34%
C=C(C)COc1ccc(-c2n[nH]c(C)c2-c2ccccc2)c(O)c1 21.4%
Cc1cccc(CN2CCC(Oc3ccc(C(=O)N4CCCC4)cc3)CC2)n1 0.665%
Cc1ccc(CCNC(=O)C23C[C@H]4C[C@@H](C2)CC(n2nnc(C)n2)(C4)C3)cc1 5.08%
C#CCOCCOCCOCCNc1nc(N2CCN(C(=O)[C@H](CCC(=O)O)n3cc(CN)nn3)CC2)nc(N2CCN(C(=O)[C@H](CCCN=C(N)N)n3cc(C(N)[C@@H](C)CC)nn3)CC2)n1 (some centres undefined) 76.7%
CN(C(=O)c1ccc(NC(=O)Cc2ccc(NC(=O)C3CCN(C(=O)C4CC4)CC3)cc2)cc1)C1CC1 -1.05%
O=C1CC2(CCN(C(=O)c3ccccc3Cl)CC2)Oc2ccccc21 4.1%
CC(C)(C)OC(=O)NNC(=O)Nc1ccccc1C(F)(F)F -1.55%
COc1cccc(C2c3[nH]c4ccccc4c3CCN2CCCn2cccn2)c1 (centres undefined) -2.21%
Cc1ccc(-c2csc3nc(C)n(-n4c(C)ccc4C)c(=O)c23)o1 -2.47%
O=C(Nc1cccnc1)c1ccc2c(c1)C(=O)N(Cc1cccnc1)C2=O -5.85%
CSc1nc(N)nc2c1ncn2CC(=O)N[C@H](CO)Cc1c[nH]c2ccccc12 -0.209%
O=C1[C@@H]2[C@H](C(=O)N1O)[C@H]1C=C[C@@H]2C1 -0.309%
CCOC(=O)CCC(=O)NCc1ccc2c(c1)cc(C)n2C 7.23%
O=C(COC(=O)c1cccs1)c1ccccc1 -4.18%
Cc1nnc(N2C(=O)c3cccc4c([N+](=O)[O-])ccc(c34)C2=O)s1 8.61%
Cc1ccc(-n2nc3c(N4CCC(C(=O)N5CCCCCC5)CC4)nnc(C)c3c2C)cc1 2.79%
CN(C)CCCNC1=CC(=O)OC12CCCCC2 -0.414%
CCCSc1nc(-c2ccccc2)cc(C(F)(F)F)c1C#N 2.52%
Cc1ccc(C(Sc2ccccc2)C(Cn2cncn2)C(=O)c2ccccc2)cc1 (centres undefined) 3.43%
Cn1cc(C(=O)N2CCCCC2)c(=O)c2cc(S(=O)(=O)N3CCCC3)ccc21 -4.37%
CCOC(=O)[C@H]1[C@H]2COc3ccc(C)cc3[C@@H]2N2C(=O)c3ccc(Cl)cc3NC(=O)[C@@]12C -0.644%
N#CC1=C(N)N2C(=C(C#N)C13CCCCC3)SC1CCCCC12O (centres undefined) 1.47%
N#Cc1ccc(CSc2ncnc3c2cnn3Cc2ccccc2)cc1 -6.51%
O=C(c1ccc2c(c1)OCO2)N1CCCN(C(=O)c2ccc3c(c2)OCO3)CC1 -1.3%
COC(=O)C1=C(C)OC(N)=C(C#N)C1c1cc2cccc(C)c2nc1Cl (centres undefined) 3.78%
CS(=O)(=O)c1ccccc1-c1nnc(NC(=O)c2ccc3ncsc3c2)o1 6.94%
COc1ccc(S(=O)(=O)N2CC(O)CC2C(=O)OCc2nc3sc(C)c(C)c3c(=O)[nH]2)cc1 (centres undefined) 1.48%
COc1ccccc1NC(=O)c1cccs1 -1.1% [at 1.6 µM]
COc1ccc(CNC(=O)C2(CC3CC(c4ccccc4)=NO3)CCNCC2)cc1 (centres undefined) 4.29%
COc1ccc(NC(=O)CCCN(C)S(=O)(=O)c2ccc(C)cc2)cc1 -0.654%
COc1cc(NC(=O)CSc2nnnn2Cc2ccc3c(c2)OCO3)cc(OC)c1 2.73%
CCN(CC(=O)NCC1CCCO1)S(=O)(=O)c1ccc(Cl)cc1 (centres undefined) 4.07%
Cc1ccc(NC(=O)C(=O)NCCN2CCN(C(=O)C(c3ccccc3)c3ccccc3)CC2)cc1 0.69%
Cc1ccc(O)c(C(=O)c2cc(C#N)c(=O)n(CC3CCCO3)c2)c1 (centres undefined) -1.42%
Brc1ccc(-c2csc(N3CCc4ccccc4C3)n2)cc1 -8.29%
Cc1ccc(C(=O)NCC(=O)OCC(=O)Nc2ccc(Cl)cc2C(F)(F)F)cc1C 14.9%
CCOC(=O)c1c(S(=O)(=O)NCC(=O)Nc2cccc(C)c2C)c(C)n(C)c1C 0.0665%
COc1ccc(OC)c(C2=NOC(C(=O)NCCN3CCOCC3)C2)c1 (centres undefined) 0.98%
CC1CC(NC(=O)N(C)C)N(C)C(=O)N1 (centres undefined) 8.29%
CCN(c1ccc(NC(=O)CCNC(=O)c2ccco2)cc1)C(C)C 7.29%
CC(=O)Nc1ccc(NC(=O)CSc2ncnn2-c2ccccc2)cc1 -0.718%
COc1ccc(OC)c(/C=N/NC(=O)CNC(=O)c2ccc(S(=O)(=O)N3CCOCC3)cc2)c1 -0.0536%
CCC(=O)N1CCc2cc(Br)cc(S(=O)(=O)CC(=O)OC)c21 7.49%
OCc1ccc(-c2nn(Cc3ccccc3)c3ccccc23)o1 -0.0861%
COc1ccccc1C(=O)OCc1c(-c2ccccc2)ncc2ccccc12 2.56%
COC(C/C=C\[C@H](O)[C@H](C)OCc1ccccc1)OC -5.17%
Cc1cc(Cl)ccc1OCc1nc(-c2ccncc2)no1 7.77%
CC(C)(C)n1ncc2c(=O)n(Cc3ccccc3Br)cnc21 -1.56%
COc1ccc(/C=C2/CC/C(=C\c3ccc(OC)c(OC)c3OC)C2=O)c(OC)c1OC -0.573%
CCOC(=O)N1CCN(C(=S)NC(=O)c2ccc(F)cc2)CC1 -2.89%
Oc1ccc(Br)cc1/C=N/Nc1nc(N2CCCCC2)nc(N2CCOCC2)n1 12.4%
C=CCn1c(O)c(N=Nc2ccccc2C)c2ccccc21 -0.66%
Cc1ccc(S(=O)(=O)NCCC(=O)Oc2ccc3ccc(=O)oc3c2)cc1 -3.91%
COc1ccc(/C=N/N=C2\CC3CCC2(C)C3(C)C)cc1O (centres undefined) 2.55%
Cc1ccc(C)c(N2CCN(C(=O)Cn3ncc4c([nH]c5ccc(C)cc54)c3=O)CC2)c1 2.38%
COc1cc(OC)cc(C(=O)Nc2ccc(-n3cnnn3)c(C)c2)c1 4.84%

Gathered by group: the compounds so far with a CF3 group.
Activity change, negative = inhibition, inactive:
CC(C)(C)OC(=O)NNC(=O)Nc1ccccc1C(F)(F)F -1.55%
CCCSc1nc(-c2ccccc2)cc(C(F)(F)F)c1C#N 2.52%
Cc1ccc(C(=O)NCC(=O)OCC(=O)Nc2ccc(Cl)cc2C(F)(F)F)cc1C 14.9%
